# No constants are given. Whether binding was seen depends on the method and setting. Binding seen in cells or lysates may run through a third protein. Binding can be weak; no strength is given. Sequences can lack the tags named with a protein.
# What was measured:
# [1] = molecular target: T1, GFP-HIP1R (wild-type full-length mouse HIP1R in pEGFP-C3) (mouse) (UniProt Q9JKY5); test: co-IP; cultured rat hippocampal neurons electroporated with GFP-HIP1R or GFP control, with or without EGF; RIPA lysate, anti-GFP antibody (results text: myc-HIP1R, anti-myc), protein A-sepharose; blot for EGFR
# T1 sequence: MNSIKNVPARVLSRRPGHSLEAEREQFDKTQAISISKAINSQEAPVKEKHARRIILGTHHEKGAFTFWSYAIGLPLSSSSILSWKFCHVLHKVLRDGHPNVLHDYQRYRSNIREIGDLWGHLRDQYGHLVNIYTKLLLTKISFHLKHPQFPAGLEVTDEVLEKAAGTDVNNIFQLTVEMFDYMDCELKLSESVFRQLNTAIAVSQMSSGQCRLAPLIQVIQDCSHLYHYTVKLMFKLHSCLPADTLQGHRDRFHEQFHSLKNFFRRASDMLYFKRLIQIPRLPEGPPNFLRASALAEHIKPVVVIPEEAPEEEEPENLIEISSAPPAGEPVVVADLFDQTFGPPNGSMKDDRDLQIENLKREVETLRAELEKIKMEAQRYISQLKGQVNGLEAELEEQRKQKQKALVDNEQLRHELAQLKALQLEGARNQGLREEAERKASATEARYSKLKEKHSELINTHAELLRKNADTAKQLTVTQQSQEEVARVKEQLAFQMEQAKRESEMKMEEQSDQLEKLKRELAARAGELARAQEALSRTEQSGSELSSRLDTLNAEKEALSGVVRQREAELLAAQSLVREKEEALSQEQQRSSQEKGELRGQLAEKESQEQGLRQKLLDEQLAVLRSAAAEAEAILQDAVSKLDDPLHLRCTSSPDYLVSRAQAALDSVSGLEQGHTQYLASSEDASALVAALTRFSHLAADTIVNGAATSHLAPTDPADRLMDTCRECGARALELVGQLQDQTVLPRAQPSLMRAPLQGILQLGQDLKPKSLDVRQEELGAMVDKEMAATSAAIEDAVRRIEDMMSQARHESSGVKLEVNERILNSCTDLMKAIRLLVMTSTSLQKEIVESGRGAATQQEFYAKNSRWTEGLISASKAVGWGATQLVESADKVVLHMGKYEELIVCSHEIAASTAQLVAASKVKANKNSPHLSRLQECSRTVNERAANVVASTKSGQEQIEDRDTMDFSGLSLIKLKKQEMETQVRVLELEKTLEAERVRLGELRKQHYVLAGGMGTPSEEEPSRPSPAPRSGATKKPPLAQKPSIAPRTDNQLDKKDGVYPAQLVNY
# [2] = molecular target: T2, GST-HIP1R_(633–822) (mouse) (UniProt Q9JKY5); test: pull-down; 2 μg purified GST-HIP1R fragment incubated overnight at 4°C with RIPA lysate of high density cultured hippocampal neurons (DIV 6-8), glutathione sepharose beads 3 h; blot for EGFR; only the target purified
# T2 sequence: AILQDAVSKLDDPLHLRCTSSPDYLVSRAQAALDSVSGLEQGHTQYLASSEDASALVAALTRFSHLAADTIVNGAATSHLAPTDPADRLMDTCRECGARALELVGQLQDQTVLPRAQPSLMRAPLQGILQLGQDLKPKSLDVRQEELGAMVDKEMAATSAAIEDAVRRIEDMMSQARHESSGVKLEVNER
substance,measurement,setting,value
"epidermal growth factor receptor (EGFR), endogenous in cultured rat hippocampal neurons",binding,[1],binds
same,binding,[2],binds

# Reference: publication PMC6291753
